This passage reports binding signal results from PMC7819943, “Rice protein-binding microarrays: a tool to detect cis-acting elements near promoter regions in rice”.

Amino acid sequences for entries named in this document (tags omitted).
UniProt Q0JBA9, entry or part of it: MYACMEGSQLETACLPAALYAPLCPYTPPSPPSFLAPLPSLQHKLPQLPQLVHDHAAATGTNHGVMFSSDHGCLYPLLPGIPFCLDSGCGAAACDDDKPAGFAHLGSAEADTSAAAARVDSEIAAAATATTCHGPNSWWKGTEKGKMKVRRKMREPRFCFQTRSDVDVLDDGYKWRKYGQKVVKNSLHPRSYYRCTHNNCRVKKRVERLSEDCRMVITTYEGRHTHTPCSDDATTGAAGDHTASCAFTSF

Some of the results follow.

The test addresses OsWRKY34 (Oryza sativa, UniProt Q0JBA9 1-250). In words: protein-binding microarray (RPBM); PBS, 2% BSA, 51.3 ng/ul salmon testes DNA, 50 uM zinc acetate, 200 nM TF, 25 C, 1 h; high values mean tight binding. The settings on record: protein: recombinant; tags: N-terminal polyhistidine and DsRed monomer fusion (pET32a); label: CyDye5-dUTP incorporated in the synthesized complementary strand; 3' TTTTT single-stranded linker to array surface; dsDNA, one strand shown. The method in brief:
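In PBS with 2% BSA, salmon testes DNA and 50 µM zinc acetate, 200 nM protein was incubated on a custom Agilent array at 25 °C for 1 h and then washed off. The array had been made double-stranded by primer extension with Cy5-dUTP and blocked with 2% BSA. The proteins were transcription factors fused N-terminally to polyhistidine and DsRed, expressed in E. coli BL21-CodonPlus and purified on Ni–NTA. The binding signal is per-feature fluorescence intensity (arbitrary units) from an Axon 4000B scanner.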
Regarding “CATCACTCTCTCTCTCTCGCTCGCTCGCTACTCCAGACTGCGGAGTCACCTAGTGCAG”, the binding signal was 11700 fluorescence intensity (a.u.).
Turning to “GGGGTTTATTATTTTCCCGGGTTAAATTGCCACGTAAGCACGGAGTCACCTAGTGCAG”, the binding signal is 10100 fluorescence intensity (a.u.).
In the case of “AACTTCCAACTTTACATCACATCTAAAACTTTTCTACACACGGAGTCACCTAGTGCAG”, the binding signal is 8770 fluorescence intensity (a.u.).
For “GGCACCTACTTCTACTTCCCCTCCCTCGCCTTCCACAAGGCGGAGTCACCTAGTGCAG” the value was 8050 fluorescence intensity (a.u.); for “CCCATCCGGTTCTAGGTTCTTATATATTGGGACGGAGGGACGGAGTCACCTAGTGCAG”, 8230 fluorescence intensity (a.u.); for “ATTTTGCGGTGGTTGGATTGGAGGGAGGGAAATTAATTGACGGAGTCACCTAGTGCAG”, 10800 fluorescence intensity (a.u.).
In the case of “AAATTATTGTCTTCACATCCATCAACTTTTAGTCTCATGTCGGAGTCACCTAGTGCAG”, the binding signal was 9260 fluorescence intensity (a.u.).
For “TAAACATCAGTCTATTTACTGCTATGCATTTTGGCATTTTCGGAGTCACCTAGTGCAG” the value was 9720 fluorescence intensity (a.u.); for “CGAGGGTGGTGGCTGGTGCGGAAATTGAGGAGTTCAATCACGGAGTCACCTAGTGCAG”, 9660 fluorescence intensity (a.u.); for “GATATCCGGTTTTGTGGTTTAGGGTCATGGATTAGATTTCCGGAGTCACCTAGTGCAG”, 14900 fluorescence intensity (a.u.).
Next, “GGCCAACACGTTCCCGGTCTATCGTTACCTATTCTTGTACCGGAGTCACCTAGTGCAG”: 11600 fluorescence intensity (a.u.); “CAGCCGCCCTACGTCAGCCAAGTCCAACGACAACGCCCAACGGAGTCACCTAGTGCAG”: 8200 fluorescence intensity (a.u.).
For “TATAGGTCCAATCTAATTTGTATCCCTTGACCGCAATACCCGGAGTCACCTAGTGCAG” the value was 8580 fluorescence intensity (a.u.); for “TAGACTGTATCATCAAAATTTTGGGTCTTATTATGCGTTTCGGAGTCACCTAGTGCAG”, 9580 fluorescence intensity (a.u.).
Consider “TCACTCTAATTTTACTTTGACCTCACACTATTACAGCATTCGGAGTCACCTAGTGCAG”, for which the binding signal is 8800 fluorescence intensity (a.u.).
For “TACTCATCAGTTCATCCGTGATTTCAGCCATTTGTTCCAACGGAGTCACCTAGTGCAG”, the binding signal was 11500 fluorescence intensity (a.u.).
With “ACTGTTTAGCTAGCGCTTTAATCTGTCTGCGTAATTTGTTCGGAGTCACCTAGTGCAG”, the binding signal is 9230 fluorescence intensity (a.u.).
On to “CGTTATGTGCCGTGTGAGTTTTTCTGTTCCTGCTCATGCTCGGAGTCACCTAGTGCAG”, for which the binding signal was 13000 fluorescence intensity (a.u.).
For “TTTTCGCACTTTTTTCGCGCTTGATTTTTTTCCATAAAGACGGAGTCACCTAGTGCAG” the value was 9130 fluorescence intensity (a.u.); for “ACTATAAATTTGTAGCACACGACTCTTCTCTTTTCTTTTTCGGAGTCACCTAGTGCAG”, 10400 fluorescence intensity (a.u.).
For “GCGTGAGTTGTGGCTGAGTGGGTTTGGCCATTGTAATCTCCGGAGTCACCTAGTGCAG” the value was 10100 fluorescence intensity (a.u.).
For “CGCCGTCTCCTCGTGTAACCCTAGCTTAGTGGATTAGTTTCGGAGTCACCTAGTGCAG” the value was 9880 fluorescence intensity (a.u.).
With “TATACACATTTCATTATCTTTCTTTTTTTCCTAAAAACTCCGGAGTCACCTAGTGCAG”, the binding signal is 8590 fluorescence intensity (a.u.).
